Measurements as given in PubChem BioAssay AID1347076 (National Center for Advancing Translational Sciences (NCATS), 2019).
The campaign covered roughly 400,000 compounds. About 13,000 (3.2%) were called active. The shares of active, inactive and inconclusive entries below differ from those in the screen. Calls follow the shape of the dose curve; as a rule, active = well fitted cell-killing curve with a large enough effect; inconclusive = small, poorly fitted or top-dose-only effect, or effect the other way; inactive = flat fitted curve, though single readings scatter. Potencies of inconclusive entries are doubtful fits and often do not repeat.

Assay: qHTS assay for MDR1-selective chemotherapeutics: Primary screen using the drug-selected MDR subline cells KB-V1; also: nearly all actives have a fitted effect of over 60% in size
Settings: KB-V1 MDR cells viability, CellTiter-Glo, 72 h; activity change, negative = cytotoxicity: at 46.1 µM (top of the series)
Method in brief: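 Cells of the MDR subline KB-V1 are plated, dosed with compound at multiple concentrations, and incubated 72 h at 37 degrees C; CellTiter-Glo is then added and luminescence read after 10 min.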
% is scaled to controls: 0 for no effect and ±100 for the full control effect; potency is read from the fitted curve at half-maximal effect.

Structure (SMILES)	Potency	activity change, negative = cytotoxicity
CCN(c1ccccc1)S(=O)(=O)c1ccc(C(=O)NCc2ccco2)cc1	inconclusive: 7.31 µM [cytotoxic, partial curve]	–
O=C(CSc1nnc2ccc(-c3ccccn3)nn12)NCCc1ccccc1	inconclusive: 29.1 µM [cytotoxic, single point]	–
CNC(=S)N(CCc1c(C)[nH]c2ccc(Cl)cc12)Cc1cc(OC)c(OC)c(OC)c1	inconclusive: 20.6 µM [cytotoxic, partial curve, poor fit]	–
O=C(c1ccc(F)cc1)C(CN1CCOCC1)c1ccccc1 (centres undefined)	inconclusive: 20.6 µM [cytotoxic, single point]	–
COc1ccc(C)cc1S(=O)(=O)N1CCN(C(=O)c2ncoc2-c2ccccc2C)CC1	inconclusive: 16.4 µM [cytotoxic, partial curve]	–
COc1cccc(/C=N/n2c(-c3ccco3)nc3ccccc3c2=O)c1OC	inactive	–
COCCCNC1=C(C#N)C(=O)NC(c2cccc([N+](=O)[O-])c2)S1 (centres undefined)	–	inconclusive: 4.76%
O=c1[nH]c(=O)n2ncnc2[nH]1	inactive	–
C[C@H]1CN=C(N(C)C)N1CCc1cccc(F)c1	inconclusive: 29.1 µM [rising, single point]	–
CCOC(=O)C1(Cc2cccc(OC)c2)CCN(Cc2cccc3c2OCO3)CC1	inconclusive: 8.2 µM [cytotoxic, partial curve, poor fit]	–
C=CCC[C@@H](CCCCC)OC(=O)/C=C/[C@@H](O)[C@H](O)C[C@@H](O)CC=C	inconclusive: 14.6 µM [cytotoxic, partial curve]	–
CCOc1ccccc1NC(=O)CN(c1cc(C)cc(C)c1)S(=O)(=O)c1c(C)noc1C	inconclusive: 18.4 µM [rising, single point]	–
CC(=O)Nc1ccc(NS(=O)(=O)c2cc(-c3n[nH]c(=O)c4ccccc34)ccc2C)cc1	inconclusive: 5.17 µM [rising, partial curve, poor fit]	–
C=CC[n+]1c(-c2ccc(C)cc2)csc1NNC(=O)Nc1ccccc1	active: 14.6 µM	–
CC(=O)NC(C(=O)N1CCC(c2nc3ccccc3s2)CC1)C(C)C (centres undefined)	inactive	–
COc1ccc(N/N=C(/C(N)=O)C2=NC(C)(C)Cc3ccccc32)cc1	inconclusive: 23.1 µM [cytotoxic, single point]	–
Nc1cc(=O)n(Cc2ccccc2)c(=O)n1-c1ccc(Cl)cc1	inactive	–
CCOc1cccc2sc(N3CCN(C(=O)c4ccc5ncsc5c4)CC3)nc12	inconclusive: 25.9 µM [cytotoxic, single point]	–
CCN/N=C(\Cc1nc2ccccc2[nH]1)c1ccccc1	inactive	–

As entered above.
For Potency, CCOc1ccccc1NC(=O)CN(c1cc(C)cc(C)c1)S(=O)(=O)c1c(C)noc1C shows inconclusive: 18.4 µM [rising, single point]
For Potency, O=C(c1ccc(F)cc1)C(CN1CCOCC1)c1ccccc1 (centres undefined) shows inconclusive: 20.6 µM [cytotoxic, single point]
